Binding data for 2 substances are collected here from publication PMC8211105.

Experiment [1] concerns the target T1, MxiK, BACTH fusion (S. flexneri) (UniProt P0A227).
T1 sequence: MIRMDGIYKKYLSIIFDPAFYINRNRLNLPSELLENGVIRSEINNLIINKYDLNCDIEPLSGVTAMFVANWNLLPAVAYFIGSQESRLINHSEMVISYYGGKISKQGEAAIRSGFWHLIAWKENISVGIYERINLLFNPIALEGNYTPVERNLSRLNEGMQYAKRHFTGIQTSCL
Nature of the experiment: two-hybrid; bacterial adenylate cyclase two-hybrid (BACTH) in cyaA- E. coli BTH101; T18 and T25 fused to N- or C-terminus, eight permutations; read on LB X-gal and MacConkey maltose plates, 30°C; positive if at least one permutation is positive.

For experiment [2], the target named is T2, MxiN, BACTH fusion (S. flexneri) (UniProt Q6XVX6).
T2 sequence: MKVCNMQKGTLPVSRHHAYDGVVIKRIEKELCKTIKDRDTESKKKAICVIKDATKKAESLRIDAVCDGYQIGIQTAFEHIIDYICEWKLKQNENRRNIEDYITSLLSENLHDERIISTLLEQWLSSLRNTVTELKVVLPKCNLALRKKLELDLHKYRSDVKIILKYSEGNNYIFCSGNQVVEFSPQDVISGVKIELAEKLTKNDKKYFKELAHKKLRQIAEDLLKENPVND
The experiment is described as above.

No constants are given. Whether binding was seen depends on the method and setting. Binding can be weak; no strength is given. Tags and fused reporters may be left off the sequences shown.

“Spa33^C (C-terminal domain of Spa33), BACTH fusion (S. flexneri) (domain or fragment)”: the binding result in experiment [1] and in experiment [2] was “no binding” in each case.
As for “Spa33^FL (full-length Spa33 lacking the internal translation start site), BACTH fusion (from UniProt P0A1K9)”, the binding result in experiment [1] and in experiment [2] was “binds” each time.
